Here are results for 17 molecules from publication PMC7592556.

Protein sequences, listed by entry. Tags and fused reporters are not part of them. Lines headed by an entry give the natural chain unless they say otherwise; changes in a name come on top. Residues count along the entry.
His6-SUMO fusion protein of the complete Shank3 N-terminus (SPN-Ank, residues 1-348) (Q9JLU4, residues 1-348): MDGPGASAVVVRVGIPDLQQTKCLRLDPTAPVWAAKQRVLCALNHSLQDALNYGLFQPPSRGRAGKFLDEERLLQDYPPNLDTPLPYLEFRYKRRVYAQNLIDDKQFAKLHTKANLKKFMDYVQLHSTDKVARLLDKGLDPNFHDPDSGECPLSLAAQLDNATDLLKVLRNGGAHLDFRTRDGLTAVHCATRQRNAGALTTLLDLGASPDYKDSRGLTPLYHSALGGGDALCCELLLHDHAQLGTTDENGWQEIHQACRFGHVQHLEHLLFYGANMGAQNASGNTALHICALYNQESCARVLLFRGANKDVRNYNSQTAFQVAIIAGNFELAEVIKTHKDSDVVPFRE
His6-SUMO fusion protein of the Shank3 Ank repeats (residues 99-348) (Q9JLU4, residues 99-348): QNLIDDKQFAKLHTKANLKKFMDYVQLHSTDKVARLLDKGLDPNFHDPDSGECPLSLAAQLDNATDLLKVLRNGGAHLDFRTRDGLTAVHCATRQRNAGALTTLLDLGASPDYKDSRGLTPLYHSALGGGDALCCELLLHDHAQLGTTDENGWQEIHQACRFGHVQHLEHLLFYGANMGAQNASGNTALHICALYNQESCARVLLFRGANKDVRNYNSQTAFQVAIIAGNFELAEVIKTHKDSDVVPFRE
UniProt P15116: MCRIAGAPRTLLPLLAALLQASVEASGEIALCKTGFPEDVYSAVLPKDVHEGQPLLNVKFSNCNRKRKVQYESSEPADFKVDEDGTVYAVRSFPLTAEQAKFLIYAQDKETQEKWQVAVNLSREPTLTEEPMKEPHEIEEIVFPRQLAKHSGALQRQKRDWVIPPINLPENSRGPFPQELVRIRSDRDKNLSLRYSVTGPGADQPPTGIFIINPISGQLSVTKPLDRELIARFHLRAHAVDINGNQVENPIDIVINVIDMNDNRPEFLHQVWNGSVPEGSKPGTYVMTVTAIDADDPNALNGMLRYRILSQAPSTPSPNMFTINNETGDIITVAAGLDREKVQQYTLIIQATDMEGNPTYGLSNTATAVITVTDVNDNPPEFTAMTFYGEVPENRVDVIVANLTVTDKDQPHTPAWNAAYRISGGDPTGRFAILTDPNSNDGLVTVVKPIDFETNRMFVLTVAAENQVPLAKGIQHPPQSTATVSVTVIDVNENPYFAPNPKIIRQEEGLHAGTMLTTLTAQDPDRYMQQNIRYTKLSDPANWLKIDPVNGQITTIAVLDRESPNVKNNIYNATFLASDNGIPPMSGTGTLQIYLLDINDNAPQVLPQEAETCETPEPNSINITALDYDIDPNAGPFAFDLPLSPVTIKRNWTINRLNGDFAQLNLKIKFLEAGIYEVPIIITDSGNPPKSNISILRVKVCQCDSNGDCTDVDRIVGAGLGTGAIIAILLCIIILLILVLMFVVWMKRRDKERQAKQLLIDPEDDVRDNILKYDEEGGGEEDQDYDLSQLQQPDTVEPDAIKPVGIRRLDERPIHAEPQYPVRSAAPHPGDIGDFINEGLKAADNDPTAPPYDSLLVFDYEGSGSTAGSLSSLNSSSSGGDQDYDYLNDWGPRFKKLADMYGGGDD
UniProt O08788: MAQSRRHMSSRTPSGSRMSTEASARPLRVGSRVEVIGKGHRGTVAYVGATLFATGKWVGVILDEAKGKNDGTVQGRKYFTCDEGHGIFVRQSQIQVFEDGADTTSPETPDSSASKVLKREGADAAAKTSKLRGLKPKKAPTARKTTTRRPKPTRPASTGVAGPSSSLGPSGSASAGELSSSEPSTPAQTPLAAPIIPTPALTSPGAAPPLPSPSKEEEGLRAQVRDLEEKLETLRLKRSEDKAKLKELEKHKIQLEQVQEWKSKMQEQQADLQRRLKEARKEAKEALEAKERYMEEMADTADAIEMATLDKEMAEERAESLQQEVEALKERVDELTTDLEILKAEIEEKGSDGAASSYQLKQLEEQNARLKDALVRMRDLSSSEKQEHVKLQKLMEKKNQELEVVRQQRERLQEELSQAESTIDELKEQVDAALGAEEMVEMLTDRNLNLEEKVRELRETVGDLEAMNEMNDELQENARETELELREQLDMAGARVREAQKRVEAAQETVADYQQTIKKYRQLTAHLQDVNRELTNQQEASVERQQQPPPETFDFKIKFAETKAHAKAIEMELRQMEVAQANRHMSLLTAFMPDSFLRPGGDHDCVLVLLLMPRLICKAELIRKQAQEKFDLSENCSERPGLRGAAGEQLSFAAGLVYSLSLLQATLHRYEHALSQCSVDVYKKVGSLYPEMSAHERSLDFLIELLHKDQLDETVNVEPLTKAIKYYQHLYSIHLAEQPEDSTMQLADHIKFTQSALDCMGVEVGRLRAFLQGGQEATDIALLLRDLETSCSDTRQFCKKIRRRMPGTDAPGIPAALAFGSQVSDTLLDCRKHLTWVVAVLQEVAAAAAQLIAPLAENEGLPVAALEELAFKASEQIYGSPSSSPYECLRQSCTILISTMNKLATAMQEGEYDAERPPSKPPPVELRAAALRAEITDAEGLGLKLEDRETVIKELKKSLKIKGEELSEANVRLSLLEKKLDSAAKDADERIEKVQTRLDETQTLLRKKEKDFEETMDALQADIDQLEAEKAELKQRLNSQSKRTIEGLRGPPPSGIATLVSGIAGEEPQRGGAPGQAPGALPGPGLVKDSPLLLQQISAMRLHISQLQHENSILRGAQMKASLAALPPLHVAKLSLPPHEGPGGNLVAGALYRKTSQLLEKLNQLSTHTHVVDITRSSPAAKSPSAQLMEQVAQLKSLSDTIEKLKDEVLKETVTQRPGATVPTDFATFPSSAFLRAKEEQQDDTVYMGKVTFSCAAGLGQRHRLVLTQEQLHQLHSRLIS
UniProt Q62059, residues 24-3357: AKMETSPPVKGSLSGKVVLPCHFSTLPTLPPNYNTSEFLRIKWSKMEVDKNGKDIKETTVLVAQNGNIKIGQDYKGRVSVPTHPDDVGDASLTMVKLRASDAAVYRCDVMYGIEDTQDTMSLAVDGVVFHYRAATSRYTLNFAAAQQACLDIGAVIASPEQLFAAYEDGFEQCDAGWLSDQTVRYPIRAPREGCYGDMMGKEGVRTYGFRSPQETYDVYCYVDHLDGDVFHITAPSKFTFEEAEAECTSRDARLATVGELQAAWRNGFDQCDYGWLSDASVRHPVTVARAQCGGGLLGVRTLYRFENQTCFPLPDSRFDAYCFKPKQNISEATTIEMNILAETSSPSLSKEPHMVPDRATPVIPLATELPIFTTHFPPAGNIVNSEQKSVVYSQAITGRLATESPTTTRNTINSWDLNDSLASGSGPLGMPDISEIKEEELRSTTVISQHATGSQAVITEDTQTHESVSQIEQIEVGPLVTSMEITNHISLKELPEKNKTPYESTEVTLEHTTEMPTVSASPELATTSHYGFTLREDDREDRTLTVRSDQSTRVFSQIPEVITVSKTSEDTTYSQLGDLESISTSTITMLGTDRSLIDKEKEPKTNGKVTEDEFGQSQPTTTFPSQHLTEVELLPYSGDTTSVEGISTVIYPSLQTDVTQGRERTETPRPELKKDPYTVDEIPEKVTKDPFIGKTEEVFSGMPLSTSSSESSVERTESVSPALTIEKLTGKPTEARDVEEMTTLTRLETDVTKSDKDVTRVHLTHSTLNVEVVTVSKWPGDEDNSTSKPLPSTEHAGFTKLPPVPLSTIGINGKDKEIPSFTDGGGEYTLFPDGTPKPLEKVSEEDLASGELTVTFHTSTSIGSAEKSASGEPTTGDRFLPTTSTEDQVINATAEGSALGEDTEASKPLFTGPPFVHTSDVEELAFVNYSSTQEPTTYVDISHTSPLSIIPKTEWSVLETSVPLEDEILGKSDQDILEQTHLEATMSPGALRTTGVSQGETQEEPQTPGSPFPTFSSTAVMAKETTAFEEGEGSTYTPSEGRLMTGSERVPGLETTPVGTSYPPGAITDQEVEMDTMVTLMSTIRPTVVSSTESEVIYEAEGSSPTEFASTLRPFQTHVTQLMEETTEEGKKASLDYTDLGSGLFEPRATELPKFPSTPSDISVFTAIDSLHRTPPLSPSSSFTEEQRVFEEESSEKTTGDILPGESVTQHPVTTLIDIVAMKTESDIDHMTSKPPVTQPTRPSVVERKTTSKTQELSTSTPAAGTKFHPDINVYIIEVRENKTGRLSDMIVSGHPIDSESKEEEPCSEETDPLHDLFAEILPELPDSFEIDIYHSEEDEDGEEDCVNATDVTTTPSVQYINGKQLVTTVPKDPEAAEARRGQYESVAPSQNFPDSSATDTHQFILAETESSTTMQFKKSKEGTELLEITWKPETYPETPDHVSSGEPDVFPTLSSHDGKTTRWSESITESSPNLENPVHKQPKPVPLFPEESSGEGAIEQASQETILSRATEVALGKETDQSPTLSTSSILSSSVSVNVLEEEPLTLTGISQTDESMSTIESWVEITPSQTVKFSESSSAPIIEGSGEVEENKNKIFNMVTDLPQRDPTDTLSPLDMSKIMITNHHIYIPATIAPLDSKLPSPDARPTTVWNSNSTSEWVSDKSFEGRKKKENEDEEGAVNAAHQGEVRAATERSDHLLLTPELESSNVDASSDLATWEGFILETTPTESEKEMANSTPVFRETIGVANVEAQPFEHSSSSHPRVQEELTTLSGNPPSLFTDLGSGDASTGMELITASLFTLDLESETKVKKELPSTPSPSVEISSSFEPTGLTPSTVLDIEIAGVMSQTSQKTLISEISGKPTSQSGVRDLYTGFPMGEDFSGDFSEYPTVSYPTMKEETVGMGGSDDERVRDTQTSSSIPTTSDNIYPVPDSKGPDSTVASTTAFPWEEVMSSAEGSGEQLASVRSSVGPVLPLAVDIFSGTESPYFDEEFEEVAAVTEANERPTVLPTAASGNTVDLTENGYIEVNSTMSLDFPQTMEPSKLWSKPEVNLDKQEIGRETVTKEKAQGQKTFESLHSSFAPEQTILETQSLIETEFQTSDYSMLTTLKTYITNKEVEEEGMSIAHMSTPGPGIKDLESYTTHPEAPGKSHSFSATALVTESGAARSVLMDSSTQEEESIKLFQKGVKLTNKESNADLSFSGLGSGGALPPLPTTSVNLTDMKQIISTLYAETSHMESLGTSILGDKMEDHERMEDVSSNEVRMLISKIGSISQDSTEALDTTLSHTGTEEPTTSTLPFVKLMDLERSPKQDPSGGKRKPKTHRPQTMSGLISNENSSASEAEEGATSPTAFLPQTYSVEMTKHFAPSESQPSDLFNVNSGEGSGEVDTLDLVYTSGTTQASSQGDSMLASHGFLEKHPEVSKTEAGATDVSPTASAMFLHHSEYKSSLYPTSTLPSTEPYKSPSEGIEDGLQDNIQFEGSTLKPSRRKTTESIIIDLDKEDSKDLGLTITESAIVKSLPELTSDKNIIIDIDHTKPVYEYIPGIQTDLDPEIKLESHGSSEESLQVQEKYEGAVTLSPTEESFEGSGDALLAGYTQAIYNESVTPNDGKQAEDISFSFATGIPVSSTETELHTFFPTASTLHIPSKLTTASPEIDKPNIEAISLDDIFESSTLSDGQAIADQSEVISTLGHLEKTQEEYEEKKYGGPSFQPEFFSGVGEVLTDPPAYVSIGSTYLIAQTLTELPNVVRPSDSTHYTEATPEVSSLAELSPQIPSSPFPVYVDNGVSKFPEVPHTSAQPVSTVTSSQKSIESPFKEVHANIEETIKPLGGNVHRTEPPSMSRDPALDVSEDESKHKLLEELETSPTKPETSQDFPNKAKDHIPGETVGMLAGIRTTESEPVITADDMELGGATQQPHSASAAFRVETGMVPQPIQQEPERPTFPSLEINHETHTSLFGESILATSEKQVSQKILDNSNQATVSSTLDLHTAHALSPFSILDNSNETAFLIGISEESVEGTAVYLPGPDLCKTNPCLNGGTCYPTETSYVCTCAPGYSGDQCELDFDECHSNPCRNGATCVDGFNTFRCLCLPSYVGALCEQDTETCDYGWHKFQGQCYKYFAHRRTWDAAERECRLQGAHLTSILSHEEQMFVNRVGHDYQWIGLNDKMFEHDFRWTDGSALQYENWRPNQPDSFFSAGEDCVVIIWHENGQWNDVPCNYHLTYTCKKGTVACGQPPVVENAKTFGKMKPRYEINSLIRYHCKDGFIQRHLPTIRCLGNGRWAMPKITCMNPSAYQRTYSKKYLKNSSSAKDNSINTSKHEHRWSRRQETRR

These are yes or no findings as the source states them, for the method shown. Binding seen in cells or lysates may run through a third protein. A yes stands for co-enrichment or nearness to the bait. Other partners may have been found.

The target in assay [1] is His6-SUMO fusion protein of the Shank3 Ank repeats (residues 99-348) (rat) (UniProt Q9JLU4). Briefly: affinity purification with mass spectrometry; His6-SUMO-Shank3 fragments (SPN-Ank or Ank only) coupled to NHS-Sepharose; mouse forebrain PSD fraction solubilised in DOC buffer (50 mM Tris pH 9.0, 1% Na-deoxycholate); 2 h, 5 washes; LC-MS/MS, LFQ intensities compared with a SUMO matrix; four purifications (two SPN-Ank, two Ank only); only the target purified.

Assay [2] addresses His6-SUMO fusion protein of the complete Shank3 N-terminus (SPN-Ank, residues 1-348) (rat) (UniProt Q9JLU4). The description is as above.

“Rho GTPase-activating protein 39 (from UniProt P59281 1-1107)”: the binding result in assay [1] and in assay [2] was “binds” throughout.

For Cadherin-2 (from UniProt P15116), the binding entry in assay [1] and in assay [2] was “binds” throughout.

With “Voltage-dependent R-type calcium channel subunit alpha-1E (from UniProt Q61290 1-2272)”, the binding entry in assay [1] and in assay [2] was “binds” throughout.

For the molecule “Ras/Rap GTPase-activating protein SynGAP (from UniProt F6SEU4 1-1340)”, the binding entry in assay [1] and in assay [2] was “binds” in each case.

With “Arf-GAP with GTPase, ANK repeat and PH domain-containing protein 2 (from UniProt Q3UHD9 1-1186)”, the binding result in assay [1] and in assay [2] was “binds” each time.

For “Voltage-dependent N-type calcium channel subunit alpha-1B (from UniProt O55017 1-2327)”, the binding result in assay [1] and in assay [2] was “binds” throughout.

On to “Probable ubiquitin carboxyl-terminal hydrolase FAF-X (from UniProt P70398 1-2559)”, for which the binding entry in assay [1] and in assay [2] was “binds” each time.

On to “Dynactin subunit 1 (from UniProt O08788 1-1281)”, for which the binding result in assay [1] and in assay [2] was “binds” throughout.

“Versican core protein (from UniProt Q62059 24-3357)”: the binding entry in assay [1] and in assay [2] was “binds” each time.

For “Arf-GAP with GTPase, ANK repeat and PH domain-containing protein 3 (from UniProt Q8VHH5 1-910)”, the binding result in assay [1] and in assay [2] was “binds” each time.

For “Myosin phosphatase Rho-interacting protein (from UniProt P97434 1-1024)”, the binding entry in assay [1] and in assay [2] was “binds” throughout.

B1: Claudin-11 (protein, UniProt Q60771 1-207)
chain: MVATCLQVVGFVTSFVGWIGIIVTTSTNDWVVTCSYTIPTCRKMDELGSKGLWADCVMATGLYHCKPLVDILILPGYVQACRALMIAASVLGLPAILLLLTVLPCIRMGHEPGVAKYRRAQLAGVLLILLALCAIVATIWFPVCAHREITIVSFGYSLYAGWIGAVMCLVGGCVIVCCSGDAQSFGENRFYYSSGSSSPTHAKSAHV
On to B1, for which the binding entry in assay [1] and in assay [2] was “binds” throughout.

B2: 14-3-3 protein sigma (protein, UniProt O70456 1-248)
chain: MERASLIQKAKLAEQAERYEDMAAFMKSAVEKGEELSCEERNLLSVAYKNVVGGQRAAWRVLSSIEQKSNEEGSEEKGPEVKEYREKVETELRGVCDTVLGLLDSHLIKGAGDAESRVFYLKMKGDYYRYLAEVATGDDKKRIIDSARSAYQEAMDISKKEMPPTNPIRLGLALNFSVFHYEIANSPEEAISLAKTTFDEAMADLHTLSEDSYKDSTLIMQLLRDNLTLWTADSAGEEGGEAPEEPQS
In the case of B2, the binding entry in assay [1] and in assay [2] was “binds” throughout.

B3: Disks large-associated protein 4 (protein, UniProt B1AZP2 1-992)
chain: MKGLGDSRPRHLSDSLDPPHEPLFAGPDRNPYLLSPTEAFAREARFPGQNTLPGDGLFPLNNQLPPPSSTFPRIHYNSHFEVPEESPFPSHAQATKINRLPANLLDQFEKQLPIHRDGFSTLQFPRGEAKARGESPGRIRHLVHSVQRLFFTKAPSMEGTAGKVGGNGSKKGGLEDGKGRRAKSKERAKAGEPKRRSRSNISGWWSSDDNLDGEGGAFRSGPASGLMTLGRQQERTQPRYFMHAYNTISGHMLKTTKNTTTELTAPPPPPAPPATCPSLGVGTDTNYVKRGSWSTLTLSHAHEVCQKTSATLDKSLLKSKSCHQGLAYHYLQVPGGGGEWSTTLLSPRDMDSTAEGPIPCRRMRSGSYIKAMGDEDSDESGGGSPKPSPKTAARRQSYLRATQQSLGEQSNPRRSLDRLDSVDMLLPSKCPSWEDDYNPISDSLNDSSCISQVFGQASLIPQLFGHDQQVREADLSDQYEAACESACSEAESTTAEALDLPLPSYFRSRSHSYLRAIQAGCSQEEDSVSLQSLSPPPSTGSLSNSRTLPSSSCLVAYKKTPPPVPPRTTSKPFISVTVQSSTESAQDTYLDSQDHKSEVTSQSGLSNSSDSLDSSTRPPSVTRGGITPGPEAPEPPPKHAALKSEQGTLTSSESHSEAIPKRKLSSIGIQVDCIQPVPKEEPSPATKFQSIGIQVEDDWRSSAPSHSMSSRRDTDSDTQDANDSSCKSSERSLPDCTSHPNSISIDAGPRQAPKIAQIKRNLSYGDNSDPALEASSLPPPDPWLETSSSSPAEPAQPGACRRDGYWFLKLLQAETERLEGWCCQMDKETKENNLSEEVLGKVLSAVGSAQLLMSQKFQQFRGLCEQNLNPDANPRPTAQDLAGFWDLLQLSIEDISMKFDELYHLKANSWQLVETPEKRKEEKKPPPPVPKKPAKSKAAVSRDKASDAGDKQRQEARKRLLAAKRAASVRQNSATESADSIEIYVPEAQTRL
On to B3, for which the binding entry in assay [1] and in assay [2] was “binds” each time.

B4: Armadillo repeat protein deleted in velo-cardio-facial syndrome (protein, UniProt P98203 1-962)
chain: MEDCNVHSAASILASVKEQEARFERLTRALEQERRHVALQLERAQQPGMSSGGMVGSGQPLPMAWQQLVLQEQSPGSQASLATMPEAPEVLEETVTVEEDPGTPTSHVSIVTSEDGTTRRTETKVTKTVKTVTTRTVRQVPLGPDGLPLLDGGPPLGSFADGPLDRHYLLRGGGGPAATLSRTYHSSGGGFPDGPESRDIPSYGSLSRGLGVRPPRTGLLGPGPGDGCFTLPGRREAFPMGSESGPPSGRSLPEHFQAEPYGLEDDTRSLAADDEGGPDLEPDYSTATRRRPEYGRGLRARAFEDTADDAGELIEERPPFPAATAPLAQPERGSLGSLDRVVRRSPSVDSTRKEPRWRDPELPEVLAMLRHPVDPVKANAAAYLQHLCFENEGIKRRVRQLRGLPLLVALLDHPRAEVRRRACGALRNLSYGRDTDNKAAIRDCGGVPALVRLLRAARDNEVRELVTGTLWNLSSYEPLKMVIIDHGLQTLTHEVIVPHSGWEREPNEDSKPRDAEWTTVFKNTSGCLRNVSSDGAEARRRLRECEGLVDALLHALQSAVGRKDTDNKSVENCVCIMRNLSYHVHKEVPGADRYQEAEPGIPGSTTSQRRRKDDASCFGGKKAKEEWFHQGKKDAEMDRNFDTLDLPKRTEAAKGFELLYQPEVVRLYLSLLTESRNFNTLEAAAGALQNLSAGNWTWATYIRATVRKERGLPVLVELLQSETDKVVRAVAIALRNLSLDQRNKDLIGSYAMTELVRNVRNAQAPAHPSAHLEEDTVVAVLNTIHEIVSDSLDNARSLLQARGVPALVALVASSQSVREAKAASHVLQTVWSYKELRGALQRDGWTKSRFQSASTAKGPKGTPSSGGFDDSTLPLVDKSLDGEKSNTRDVIPMDTLGPDGYATVDRRERRTLGSDSTGDTSEKELLRPDPGRKAPPPGPSRPSVRLVDAVGDTKPQPVDSWV
For B4, the binding result in assay [1] and in assay [2] was “binds” each time.

B5: F-box only protein 41 (protein, UniProt Q6NS60 1-873)
chain: MASLDLPYRCPRCGEHKRFRSLSSLRAHLEYSHTYETLYILSKTNSICDGAAAAAAAAAAASGFPLAPEPAALLAVPGARREVFESTSFQGKEQATGPSPAGPHLLHHHHHHAPLAHFPADLVPASLPCEELAEPGLVPAARYALREIEIPLGELFARKSVASSACSTPPPGPGPGPCSGPSSASPASPSPADVAYEEGLARLKIRALEKLEVDRRLERLSEEVEQKIAGQVGRLQAELERKAAELETARQESARLGREKEELEERASELSRQVDVSVELLASLKQDLVHKEQELSRKQQEVVQIDQFLKETAAREASAKLRLQQFIEELLERADRAERQLQVISSSCGSTPSASLGRGGGGSASGPGVRGPGRMREHHAGSAVPSTYAVSRHGSSPSTGASSRVPAASQSSGCYDSDSLELPRPEEGPSEDSGPGGLGSRAQATNGGSERSQAPRSSGLRRQAIQNWQRRPRRHSTEGEEGDVSDVGSRTTESEAEGPSDVPRPGPAVAGPLNSCRLSARPEGGSGRGRRVERGSPSRSNEVISPEILKMRAALFCIFTYLDTRTLLHAAEVCRDWRFVARHPAVWTRVLLENARVCSKFLAMLAQWCTQAHSLTLQNLKPRQRGKKESKEEYARSTRGCLEAGLESLLKAAGGNLLILRISHCPNILTDRSLWLASCYCRALQAVTYRSATDPVGHEVIWALGAGCRDIVSLQVAPLHPCQQPTRFSNRCLQMIGRCWPHLRALGVGGAGCGVQGLASLARNCMRLQVLELDHVSEITQEVAAEVCREGLKGLEMLVLTATPVTPKALLHFNSICRNLKSIVVQIGIADYFKEPSSPEAQKLFEDMVTKLQALRRRPGFSKILHIKVEGGC
Turning to B5, the binding entry in assay [1] and in assay [2] was “binds” each time.

B6: Synaptosomal-associated protein 47 (protein, UniProt Q8R570 1-413)
chain: MSSDMRVHSWSCSYYLDLEKQWVSGKLTLTPHSLKFIVEKTEEVLVGLPLSSIIEIRKESSLFIFGAITVLEKGQTKHWFSSLQPSRNVVFNVIEHFWRELLLSQPGTAANIPSHVTRGQELIGLMANSQKRMEDTAKDLQQQSEQLDSVLKGLEKMESDLDVADRLLTELETPSWWPFGSKFWKMPAEENLKEGVSSTCEPFGKEGVVITVPAIISERAESHSKLGKLTVLVSALEIYDSCSLLLHRFEKEDVDDIKVHSPYEVSIRQRFIGKPDVAYQLISAKMPEVIPILEVQFSSKIELLEDALVLRNKVFASSAERHAASRPKGCTPHRELPTGGQEGEQLQLQKNLPLFSEGEAQELTQILSKMKGLALDTEAELERQDAALDGITVAVDRATLNVDKQNRRMRKLM
Consider B6, for which the binding result in assay [1] and in assay [2] was “binds” each time.
